Data: the supplement of paper PMC5949888
Most values lie at the floor of the assay. Slopes are relative: functional sequences can read slightly below zero.

test system: Saccharomyces cerevisiae PS128 hsf1 delta, HSF1(1-493) fusion; assay: growth estimate (transactivation domain function in HSF1 fusion, heat-shock survival) (a.u. (slope of normalised read count over time)); higher = stronger growth at 37°C, i.e. more transactivation activity; conditions: library: random library

Substance | growth estimate
LGLLARRAR | < -0.25
IRLGRGFRKVYWHARPIHRK | < -0.25
STRC | < -0.25
IPDK | < -0.25
KLIDYTLSISDMVVYPFRRY | < -0.25
NRLEGQSSKTP | < -0.25
WCGGWSHHKFLIG | < -0.25
LVEVPS | < -0.25
NHGGVGDIRSDHGLSGVHVC | < -0.25
TEG | < -0.25
RRIKV | -0.226
STIQNL | < -0.25
SVSHRTMKSQECRARLVMF | < -0.25
YVCGTVIFVTLQAGSPTRAI | -0.244
VMPVG | < -0.25
QGRVSTCQTLDKARYSASPL | < -0.25
KDQSATG | < -0.25
ASSAIRNYTDISVTCEHLRR | -0.0374
VSNCA | < -0.25
QLRRMACETKVV | < -0.25
LRSMILLCTDADQRCYETAS | < -0.25
GTGTPKYRGDHIHITE | < -0.25
DSSQR | < -0.25

Exported as comma-separated lines: entries from further up.
Substance,growth estimate
QLRRMACETKVV,< -0.25
LRSMILLCTDADQRCYETAS,< -0.25
GTGTPKYRGDHIHITE,< -0.25
DSSQR,< -0.25

Going on with the list.

Substance | growth estimate
GIGHIFLYIDKL | < -0.25
NQRNLPIRCGTSTPGPGITY | < -0.25
GCLLTA | < -0.25
YPIKLVRGLALWTLAL | < -0.25
QSAKCLSQPIFHWAT | < -0.25
SEYYTHAPGRGGRNRE | < -0.25
VENGGQETTLQWVTIGSLKP | < -0.25
GTGAPNGDIL | < -0.25
SVSAV | < -0.25
GGLWFEVEMKADLFGSRSAS | < -0.25
VSTNIGYLGDLLQTGPIWVP | < -0.25
GCLVSYILRYSMQRPCTLHN | < -0.25
YEY | < -0.25
GRRGRNASQRKAMWLQQRAA | < -0.25
HSWLRVVPIRHMYEYVVW | -0.25
GGVT | < -0.25
RCIQSSNCSNRCSTGQRS | < -0.25
LEIMGN | < -0.25
ADNWWWTAIKEGTHSWVGDN | 9.56
RVALT | < -0.25
TKGAAGRYCSLICEIGSPTR | < -0.25
AGFQVLVPPIAATVHGRQHI | < -0.25
IPGHPGQNVK | < -0.25

Substance | growth estimate
PAAVLLVTPTVSVDVLAVFS | < -0.25
AFLGCDQVGCLVYVTRTLRR | < -0.25
RSWHPSGDKTRVTTLVYPPA | < -0.25
FKMIFRTVEGGDDSVRHQVA | < -0.25
DNTRSVQGIENGRPGSLWLP | < -0.25
ERRTRNRTCSIS | < -0.25
LGYRGGALTIFEK | < -0.25
RLAPAVASVPEWIRSQDLKC | < -0.25
TWCCLEFIPVTGTLVATSPE | < -0.25
YAHIRRTMR | < -0.25
RSPDRVLAKSVRRSVGW | < -0.25
CCTLADSFAHRSV | < -0.25
IQERSHPVISGMGDLHDLAA | < -0.25
AMWTMVRIIGPLWRD | < -0.25
EEVEAMPEDYGDKPTV | < -0.25
NYGDAVFLALYRLHSLGRIS | < -0.25
FSVKSG | < -0.25
SPTIFWKVTDRRA | -0.248
NRD | < -0.25
GSIAASVG | < -0.25
GEGPGRESLPREVVFAPLIA | < -0.25
QFGPLASQSKTGVIS | < -0.25
AHVTGRDLGVRIDVPFV | < -0.25

Substance | growth estimate
VCNGETRVLLRVAS | < -0.25
YNIAATSPI | < -0.25
RNDSEGEHLPATGSSWGNLV | < -0.25
SASNLVENIGVLFGIDNRFG | < -0.25
AWQTQGVHIRSPQ | < -0.25
DARPVVTRCNRLT | < -0.25
GFTKPGFIVARLNL | < -0.25
VSQSVWDRAPQSMTFDRQWA | < -0.25
SGKFNYATPHIVPSGSRVRA | < -0.25
ARALMVLEEGLAAGSQHPLV | < -0.25
DCSAKHESMRNQVYKGSWCH | < -0.25
SAFVSLMTCIS | < -0.25
KQQKVSNAALPPHSYLYHTS | < -0.25
VYPTCLH | < -0.25
RRSSREDYDGGGLNIGSNTR | < -0.25
YSRGLTYSVSGKRTAFHRLD | < -0.25
VWFADAQSGRRGLIDGVQPV | < -0.25
AEVRRDTPRPTNFPALRAQL | < -0.25
RVKMMSESWTSRILDV | -0.0139
MRGLVHIGLDWLGVRPGRC | -0.219
SSRYGSGNLGIPPEASRFVV | < -0.25
FGLRTDWDGCWNPKVRSPQN | < -0.25
RTCHDGL | < -0.25

Individual results from the entries so far.
AEVRRDTPRPTNFPALRAQL | growth estimate: < -0.25
AWQTQGVHIRSPQ | growth estimate: < -0.25
MRGLVHIGLDWLGVRPGRC | growth estimate: -0.219
DARPVVTRCNRLT | growth estimate: < -0.25
RTCHDGL | growth estimate: < -0.25

(listing goes on)

Substance | growth estimate
YETCACWPPGQWMTPEPQGL | < -0.25
VTLTEISVPMQEYEHHSTTA | < -0.25
GSIGDSASEARCIQYVIGDV | < -0.25
LSTNEPPCASWLVGCR | < -0.25
SLRSCKCSRAPQRYRVKLYE | < -0.25
AEKKKHAQGSDRRAFCKAG | < -0.25
RVETLARERTCRTVYGSNHP | < -0.25
PDLIYRES | < -0.25
VHGSPQHTTETARPSCVSRV | < -0.25
SQCH | < -0.25
ELYHGVALRPEGGRV | < -0.25
CRPATRAAPPSRLVDRVKAR | < -0.25
SHI | < -0.25
IDTWRERTSSDPSKHTVGGF | < -0.25
GRVVSRHGMSPVGLSWGGKA | < -0.25
LGL | < -0.25
RGRRFLSAWQDLRPIARTTG | < -0.25
MSIRHPTLAHPGSDNLRRSP | < -0.25
LTAP | < -0.25
FTQQYDAALLTLFPQSTDGT | < -0.25
VVTDQHQCRDRFNVFEVVNT | < -0.25
EVGLCVVTCWRAHLLAGICS | < -0.25
CLELRKATNSRLLDMAHIEL | < -0.25

Substance | growth estimate
LTPSV | < -0.25
KEPGLWASNRTVYITRCTHG | < -0.25
LRHPKLSSLSRRGRPHFIPC | < -0.25
RLLGSTACGLDKGATQFRAM | < -0.25
IGCLLSAKFWAASELLQSKS | < -0.25
YDQECEFDPTVRVYLSARSA | < -0.25
VYFAIKHN | < -0.25
WFWEDRSELWNTIHSLTNWI | < -0.25
RMRAANRRPTAKDPVCDC | < -0.25
TYWQLMCCSSALMPVVNHCH | 0.0328
SLPDPK | < -0.25
ASMETFVEP | < -0.25
LSI | < -0.25
ICDTRPILGQSGDDGQEVGT | < -0.25
RFISCWQGGTLK | < -0.25
LRDSRDERVVRLLQCFALNR | < -0.25
GGWNGGVAQGRDSPNAVYRW | < -0.25
PSVSIRFQWLRGGCRVRPGP | < -0.25
SLACHVTRQTEESI | < -0.25
CIQLTLTVGPFEYEGTAGV | < -0.25
ISS | -0.246
SCNW | < -0.25
NGPIRSSLSVNWSGPSTVTM | < -0.25

Substance | growth estimate
TQGNLGYLSKRKRPRSVYSG | < -0.25
VTPH | < -0.25
KPPHRWMR | < -0.25
YWDVLSVPLGG | < -0.25
CSLIKIVMSTASTGGKGRDG | < -0.25
NQPRLAPHVTRCRPAWEPLR | < -0.25
YEWYLRSFGLRYG | < -0.25
PGLKSGGS | < -0.25
GRALRWARAWSVVVAKPQLG | < -0.25
TSEANSGV | < -0.25
QQGNVGAKTAT | < -0.25
QSCVEYKVGVMYNGDHRTMR | < -0.25
GRR | < -0.25
LKGSGTIFATRSEQEFMITG | < -0.25
VWWPETITVNYA | -0.112
SRRCKIVRYPNLPSDRPKPA | < -0.25
RPRASRPRCPVLGSYRVAIV | < -0.25
QNHYASTRWSYR | < -0.25
VLSGLESTLLSWRSGCANMF | -0.0471
